Patent US20250066422A1
These are yes or no findings as the source states them, for the method shown. Binding can be weak; no strength is given.

Each binder was assayed against HLA-A*0201 (human) (assay: UV-ligand exchange, streptavidin/anti-b2m sandwich ELISA).

binding, binds:
YVYQNNIYL [FAP-003]
FQYDHEAFL [RCN1-001]
AIMGFIGFFV [SEC61G-001]
SMSGYDQVL [HNRNPH-001]
SLLESNKDLLL [SLC3A2-001]
SLHFLILYV [ATP-001]
YLIHFPVSV [AKR-001]
